Data from doi:10.1101/2025.05.27.654799.
No constants are given. Whether binding was seen depends on the method and setting. In cells and extracts the contact can be indirect. A yes stands for co-enrichment or nearness to the bait. Other partners may have been found.

Chains of the proteins cited; added tags and fusions are not shown. Residues count along the entry.
UniProt P21802, residues 22-821: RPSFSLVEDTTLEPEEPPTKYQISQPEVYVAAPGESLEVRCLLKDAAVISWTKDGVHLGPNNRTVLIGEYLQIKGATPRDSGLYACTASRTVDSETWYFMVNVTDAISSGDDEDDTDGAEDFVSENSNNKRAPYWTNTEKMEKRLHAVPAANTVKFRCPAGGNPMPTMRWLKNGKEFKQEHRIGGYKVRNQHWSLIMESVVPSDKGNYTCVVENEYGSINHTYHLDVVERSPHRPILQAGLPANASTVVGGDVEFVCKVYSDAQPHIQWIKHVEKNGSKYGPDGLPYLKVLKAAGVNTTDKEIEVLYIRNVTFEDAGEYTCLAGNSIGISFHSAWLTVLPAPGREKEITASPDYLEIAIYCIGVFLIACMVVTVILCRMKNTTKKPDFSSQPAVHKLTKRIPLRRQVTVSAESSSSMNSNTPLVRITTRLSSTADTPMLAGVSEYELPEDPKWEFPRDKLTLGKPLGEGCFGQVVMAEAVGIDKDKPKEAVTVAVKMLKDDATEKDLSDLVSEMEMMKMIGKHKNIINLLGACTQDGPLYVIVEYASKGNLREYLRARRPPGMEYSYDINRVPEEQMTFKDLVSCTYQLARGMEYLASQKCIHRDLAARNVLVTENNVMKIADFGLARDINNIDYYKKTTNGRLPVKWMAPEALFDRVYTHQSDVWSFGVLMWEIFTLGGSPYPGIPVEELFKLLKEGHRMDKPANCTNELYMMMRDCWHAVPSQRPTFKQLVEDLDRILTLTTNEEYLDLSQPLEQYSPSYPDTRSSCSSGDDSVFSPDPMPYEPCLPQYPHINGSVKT
UniProt P22607, residues 23-806: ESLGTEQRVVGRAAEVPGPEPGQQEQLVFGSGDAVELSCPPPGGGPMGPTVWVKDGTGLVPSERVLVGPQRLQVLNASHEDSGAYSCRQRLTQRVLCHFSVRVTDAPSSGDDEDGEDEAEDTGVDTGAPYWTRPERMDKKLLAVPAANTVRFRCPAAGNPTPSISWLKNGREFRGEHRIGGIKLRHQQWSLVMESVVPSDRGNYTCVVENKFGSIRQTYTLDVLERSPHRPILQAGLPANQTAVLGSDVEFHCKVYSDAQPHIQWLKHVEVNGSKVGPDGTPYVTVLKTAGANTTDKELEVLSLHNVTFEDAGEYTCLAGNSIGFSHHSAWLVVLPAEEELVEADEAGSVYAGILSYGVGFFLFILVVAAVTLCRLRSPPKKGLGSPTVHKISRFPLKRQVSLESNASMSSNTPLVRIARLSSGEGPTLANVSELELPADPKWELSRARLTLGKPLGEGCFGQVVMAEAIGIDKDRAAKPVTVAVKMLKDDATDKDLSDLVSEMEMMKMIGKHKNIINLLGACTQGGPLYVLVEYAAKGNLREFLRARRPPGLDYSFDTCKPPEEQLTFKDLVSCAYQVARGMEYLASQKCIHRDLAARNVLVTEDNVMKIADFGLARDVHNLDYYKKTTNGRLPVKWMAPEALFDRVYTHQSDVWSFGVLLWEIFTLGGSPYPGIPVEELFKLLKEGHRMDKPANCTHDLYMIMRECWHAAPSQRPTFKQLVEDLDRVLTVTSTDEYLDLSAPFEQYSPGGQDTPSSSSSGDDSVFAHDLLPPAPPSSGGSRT

Biological target: FGFR1 WT-BirA*-Flag (human) (UniProt P11362)
Test: proximity labelling

## FGFR2 (from UniProt P21802 22-821) (receptor)
  binding: binds

## FGFR3 (from UniProt P22607 23-806) (receptor)
  binding: binds

## protein tyrosine phosphatase non-receptor type 11 (PTPN11) (from UniProt Q06124 1-593) (enzyme)
  binding: binds

B1: fibroblast receptor substrate 2 (FRS2) (protein, UniProt Q8WU20 1-508)
chain: MGSCCSCPDKDTVPDNHRNKFKVINVDDDGNELGSGIMELTDTELILYTRKRDSVKWHYLCLRRYGYDSNLFSFESGRRCQTGQGIFAFKCARAEELFNMLQEIMQNNSINVVEEPVVERNNHQTELEVPRTPRTPTTPGFAAQNLPNGYPRYPSFGDASSHPSSRHPSVGSARLPSVGEESTHPLLVAEEQVHTYVNTTGVQEERKNRTSVHVPLEARVSNAESSTPKEEPSSIEDRDPQILLEPEGVKFVLGPTPVQKQLMEKEKLEQLGRDQVSGSGANNTEWDTGYDSDERRDAPSVNKLVYENINGLSIPSASGVRRGRLTSTSTSDTQNINNSAQRRTALLNYENLPSLPPVWEARKLSRDEDDNLGPKTPSLNGYHNNLDPMHNYVNTENVTVPASAHKIEYSRRRDCTPTVFNFDIRRPSLEHRQLNYIQVDLEGGSDSDNPQTPKTPTTPLPQTPTRRTELYAVIDIERTAAMSNLQKALPRDDGTSRKTRHNSTDLPM
  binding: binds
